Taken from: PubChem BioAssay AID1259308 (NCATS, 2017)

Assay: 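Genes whose loss raises luciferase production in HEK293 cells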 (primary screen)
Cell system: human HEK293 embryonic kidney cells stably expressing firefly luciferase (HEK-CMV-Luc2-Hygro)
Reagent: single siRNA against human genes, 0.8 pmol siRNA per well
Duration: 72 h
Detection: 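Reporter luminescence and viable-cell signal on separate replicate plates, given as percent of non-targeting control and median/MAD z-scores, plus per-cell luciferase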
Direction: total luciferase, z-score and total luciferase, % of control: higher = more reporter protein produced; luciferase per cell, z-score: higher = more reporter output per viable cell; viable cells, % of control: higher = more viable cells
Call rule: 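An siRNA counts as active if its total luciferase robust z-score exceeds 3; genes with two or more such siRNAs out of three were retested with fresh siRNAs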
Meaning of the calls: active = raised luciferase; inactive = no rise
The deposit covers about 59,000 reagents; shown is an unselected part. Over the whole deposit, about 1,510 (2.6%) are marked active. 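Calls use total luciferase alone and ignore viability, so some active siRNAs may act by altering cell number.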 Unmarked entries are inactive. The numbers tell different reagents against one gene apart.

no.	Target gene	reagent	total luciferase, z-score	total luciferase, % of control	luciferase per cell, z-score	viable cells, % of control
1	MUC7 (mucin 7, secreted)	1	-1.22	57.6	-1.65	99.3
2	MUC7 (mucin 7, secreted)	2	-0.85	65	-0.801	89.6
3	MUC7 (mucin 7, secreted)	3	-0.499	72	-0.106	82.7
4	CDCA7 (cell division cycle associated 7)	1	2.31	128	1.66	92.3
5	CDCA7 (cell division cycle associated 7)	2	4.59 (active)	173	3.23	82.7
6	CDCA7 (cell division cycle associated 7)	3	4.54 (active)	172	2.84	91
7	IFNGR2 (interferon gamma receptor 2)	1	0.465	91.1	-0.221	108
8	IFNGR2 (interferon gamma receptor 2)	2	-0.313	75.7	-1.15	114
9	IFNGR2 (interferon gamma receptor 2)	3	0.757	96.9	0.00309	108
10	CC2D1B (coiled-coil and C2 domain containing 1B)	1	-0.535	71.3	-0.759	97.2
11	CC2D1B (coiled-coil and C2 domain containing 1B)	2	-0.559	70.8	-0.494	90.1
12	CC2D1B (coiled-coil and C2 domain containing 1B)	3	0.181	85.5	0.172	91.3
13	FAM13B (family with sequence similarity 13 member B)	1	2.31	128	1.53	95.5
14	FAM13B (family with sequence similarity 13 member B)	2	-1.52	51.7	-1.75	91.6
15	FAM13B (family with sequence similarity 13 member B)	3	0.669	95.2	-0.248	114
16	KRTAP12-3 (keratin associated protein 12-3)	1	2.11	124	1.39	96.1
17	KRTAP12-3 (keratin associated protein 12-3)	2	-0.348	75	-0.752	102
18	KRTAP12-3 (keratin associated protein 12-3)	3	0.185	85.6	0.337	87.5
19	KRT72 (keratin 72)	1	0.966	101	2.52	58.1
20	KRT72 (keratin 72)	2	-0.86	64.8	0.248	67.8
21	KRT72 (keratin 72)	3	1.52	112	1.16	92.4
22	COMTD1 (catechol-O-methyltransferase domain containing 1)	1	-1.43	53.5	-1.52	89.2
23	COMTD1 (catechol-O-methyltransferase domain containing 1)	2	0.147	84.8	-0.418	106
24	COMTD1 (catechol-O-methyltransferase domain containing 1)	3	-0.186	78.2	-0.516	100
25	NRSN1 (neurensin 1)	1	0.475	91.3	-0.134	106
26	NRSN1 (neurensin 1)	2	-2.11	39.9	-1.4	64.3
27	NRSN1 (neurensin 1)	3	-1.08	60.4	-1.28	94.6
28	HNRNPKP3 (heterogeneous nuclear ribonucleoprotein K pseudogene 3)	1	-0.305	75.8	0.0693	83.2
29	HNRNPKP3 (heterogeneous nuclear ribonucleoprotein K pseudogene 3)	2	-1.02	61.6	-0.95	88.4
30	HNRNPKP3 (heterogeneous nuclear ribonucleoprotein K pseudogene 3)	3	1.02	102	-0.0247	115
31	NECAP1 (NECAP endocytosis associated 1)	1	-0.451	72.9	-0.573	94.8
32	NECAP1 (NECAP endocytosis associated 1)	2	0.253	86.9	0.27	90.5
33	NECAP1 (NECAP endocytosis associated 1)	3	-0.594	70.1	-0.615	92.1
34	IPO11 (importin 11)	1	-0.1	79.9	-0.479	101
35	IPO11 (importin 11)	2	-2.12	39.8	-1.2	61
36	IPO11 (importin 11)	3	0.0196	82.3	-0.0947	94.3
37	ZFP64 (ZFP64 zinc finger protein)	1	-0.141	79.1	2.33	47.9
38	ZFP64 (ZFP64 zinc finger protein)	2	-0.542	71.1	-0.527	91.3
39	ZFP64 (ZFP64 zinc finger protein)	3	-1.02	61.5	-0.0329	69.3
40	GNG8 (G protein subunit gamma 8)	1	0.471	91.3	1.14	75.6
41	GNG8 (G protein subunit gamma 8)	2	-1.91	43.9	-1.45	71.7
42	GNG8 (G protein subunit gamma 8)	3	-0.59	70.2	-0.494	89.3
43	C8orf74 (chromosome 8 open reading frame 74)	1	0.0381	82.6	-0.306	100
44	C8orf74 (chromosome 8 open reading frame 74)	2	-0.509	71.8	-0.231	85.2
45	C8orf74 (chromosome 8 open reading frame 74)	3	1.75	117	1.75	82.1
46	MMP12 (matrix metallopeptidase 12)	1	-1.61	49.9	-1.21	76.7
47	MMP12 (matrix metallopeptidase 12)	2	0.432	90.5	1.29	72.1
48	MMP12 (matrix metallopeptidase 12)	3	5.4 (active)	189	3.06	94.6
49	DUSP22 (dual specificity phosphatase 22)	1	1.85	119	1.87	81
50	DUSP22 (dual specificity phosphatase 22)	2	0.414	90.1	0.0164	100
51	DUSP22 (dual specificity phosphatase 22)	3	-0.433	73.3	-0.683	98
52	ZBTB44 (zinc finger and BTB domain containing 44)	1	0.401	89.9	-0.0457	102
53	ZBTB44 (zinc finger and BTB domain containing 44)	2	1.06	103	0.274	107
54	ZBTB44 (zinc finger and BTB domain containing 44)	3	-0.615	69.6	-1.51	116
55	EIF3CL (eukaryotic translation initiation factor 3 subunit C like)	1	-2.51	31.9	-0.724	43.1
56	EIF3CL (eukaryotic translation initiation factor 3 subunit C like)	2	-1.93	43.5	-0.65	57.7
57	EIF3CL (eukaryotic translation initiation factor 3 subunit C like)	3	-2.65	29.2	-1.99	55.1
58	NID2 (nidogen 2)	1	0.879	99.4	1.7	70.9
59	NID2 (nidogen 2)	2	5.4 (active)	189	3.46	85.1
60	NID2 (nidogen 2)	3	0.335	88.5	0.539	85.9
61	GNAO1 (G protein subunit alpha o1)	1	-1.13	59.4	-1.68	103
62	GNAO1 (G protein subunit alpha o1)	2	2.34	128	2.46	75
63	GNAO1 (G protein subunit alpha o1)	3	-0.42	73.5	0.0999	80
64	ANAPC7 (anaphase promoting complex subunit 7)	1	-0.188	78.2	-0.846	109
65	ANAPC7 (anaphase promoting complex subunit 7)	2	-1.44	53.3	-1.39	85.9
66	ANAPC7 (anaphase promoting complex subunit 7)	3	-1.19	58.2	-1.78	104
67	SNAP47 (synaptosome associated protein 47)	1	1.6	114	1.65	82.2
68	SNAP47 (synaptosome associated protein 47)	2	-1.05	60.9	-0.365	74.9
69	SNAP47 (synaptosome associated protein 47)	3	-0.368	74.6	0.227	78.5
70	AANAT (aralkylamine N-acetyltransferase)	1	0.654	94.9	0.289	98.3
71	AANAT (aralkylamine N-acetyltransferase)	2	0.648	94.8	0.191	101
72	AANAT (aralkylamine N-acetyltransferase)	3	0.507	92	0.147	98.9
73	OIT3 (oncoprotein induced transcript 3)	1	-0.872	64.5	-0.957	92.8
74	OIT3 (oncoprotein induced transcript 3)	2	-1.33	55.4	-1.31	87.4
75	OIT3 (oncoprotein induced transcript 3)	3	1.35	109	1.34	85.4
